PubChem BioAssay AID1224830 | NIAID – 2016

Aim: 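Genes whose knock-down alters the TNF-alpha reporter response to LPS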 (primary screen)
Cell system: human THP-1 monocytic leukaemia cells, TNF dual-luciferase reporter clone, PMA-differentiated to macrophage-like cells
Reagents: siRNA pool against human genes, 50 nM
Timing: LPS for 4 h, given about 3 days after siRNA transfection
Challenge: bacterial LPS (TLR4 ligand), 10 ng/ml
Measured: 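Ratio of firefly to renilla light, scaled to the plate median and expressed as a robust z-score per replicate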
Scale: TNF reporter robust z-score: higher = stronger TNF reporter response to LPS
Hit rule: 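Each well counts as active if its z-score is over 2.8 or under -1.5; controls are left without a call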
The whole screen tested about 18,000 reagents; this is a random part of them. In the full data, about 2,900 (16%) are marked active. 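Calls are made per well; low scores hint the gene aids the LPS response, high scores that it dampens it.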 Repeated entries: four replicate wells of each siRNA pool.

gene knocked down | TNF reporter robust z-score | Outcome
HSCB | 0.73 | inactive
HSCB | 1.01 | inactive
HSCB | -0.41 | inactive
HSCB | 0.94 | inactive
BCAT1 | 0.72 | inactive
BCAT1 | 0.11 | inactive
BCAT1 | 1.04 | inactive
BCAT1 | 1.69 | inactive
HSD17B8 | -0.77 | inactive
HSD17B8 | -1.15 | inactive
HSD17B8 | -0.01 | inactive
HSD17B8 | -0.82 | inactive
BLOC1S1 | -1.77 | active
BLOC1S1 | -0.3 | inactive
BLOC1S1 | -0.42 | inactive
BLOC1S1 | -1.11 | inactive
VAPA | 0.56 | inactive
VAPA | -0.21 | inactive
VAPA | -0.54 | inactive
VAPA | -0.27 | inactive
OPN1MW2 | 0.11 | inactive
OPN1MW2 | 1.35 | inactive
OPN1MW2 | 0.43 | inactive
ASB8 | 0.99 | inactive
ASB8 | -1.63 | active
ASB8 | -0.09 | inactive
ASB8 | -0.78 | inactive
MS4A15 | -0.89 | inactive
MS4A15 | 0.44 | inactive
MS4A15 | 0.95 | inactive
MS4A15 | -0.19 | inactive
CSF1R | -1.85 | active
CSF1R | -1.25 | inactive
CSF1R | -1.75 | active
CSF1R | -0.92 | inactive
SRFBP1 | 0.58 | inactive
SRFBP1 | 3.15 | active
SRFBP1 | 3.43 | active
SRFBP1 | -0.56 | inactive
HKDC1 | 1.25 | inactive
HKDC1 | 0.63 | inactive
HKDC1 | 1.05 | inactive
HKDC1 | 1.55 | inactive
ZNF688 | -0.89 | inactive
ZNF688 | -1.14 | inactive
ZNF688 | -1.09 | inactive
ZNF688 | -1 | inactive
PLD5 | -2.01 | active
PLD5 | -1.17 | inactive
PLD5 | -1.14 | inactive
PLD5 | -1.05 | inactive
SPCS2P4 | 2.04 | inactive
SPCS2P4 | 1.96 | inactive
SPCS2P4 | 0.22 | inactive
SPCS2P4 | 2.41 | inactive
CD52 | -2 | active
CD52 | -1.78 | active
CD52 | -1.85 | active
CD52 | -1.75 | active
FOXF1 | -1.25 | inactive
FOXF1 | -0.75 | inactive
FOXF1 | -1.52 | active
FOXF1 | -1.15 | inactive
POU2AF1 | 0.37 | inactive
POU2AF1 | 0.52 | inactive
POU2AF1 | 1.5 | inactive
POU2AF1 | 1.25 | inactive
MYH7 | 0.53 | inactive
MYH7 | 1.75 | inactive
MYH7 | 0.86 | inactive
MYH7 | 2.42 | inactive
TMEM14C | -1.09 | inactive
TMEM14C | 0.58 | inactive
TMEM14C | 0.24 | inactive
TMEM14C | 0.17 | inactive
ITK | -0.61 | inactive
ITK | -0.15 | inactive
ITK | -0.87 | inactive
ITK | -1.06 | inactive
GALNT14 | 1.41 | inactive
GALNT14 | 1.94 | inactive
GALNT14 | 1.15 | inactive
GALNT14 | 2.07 | inactive
TEKT1 | 1.86 | inactive
TEKT1 | 0.31 | inactive
TEKT1 | 1.5 | inactive
TEKT1 | 0.78 | inactive
CLNK | 0.26 | inactive
CLNK | 0.9 | inactive
CLNK | -0.29 | inactive
CLNK | 1.42 | inactive
C17orf78 | -0.54 | inactive
C17orf78 | -1.19 | inactive
C17orf78 | -0.79 | inactive
C17orf78 | -1.26 | inactive
SYTL4 | -1.38 | inactive
SYTL4 | -1.07 | inactive
SYTL4 | -1.32 | inactive
SYTL4 | 0.19 | inactive
WNT4 | 1.39 | inactive
WNT4 | 2.21 | inactive
WNT4 | 1.97 | inactive
WNT4 | 0.41 | inactive
HECTD4 | -0.17 | inactive
HECTD4 | 0.4 | inactive
HECTD4 | 1.12 | inactive
HECTD4 | 1.41 | inactive
ZNF45 | -0.96 | inactive
ZNF45 | -0.94 | inactive
ZNF45 | -1.37 | inactive
ZNF45 | -1.44 | inactive
